In the assay the target is Heimdall (rat (endogenous in DI TNC1)). Briefly: affinity purification with mass spectrometry; rabbit anti-Heimdall on Dynabeads Protein A, 1 h at room temperature with 500 ug of DI TNC1 cell extract (cells treated or not with 200 ng/mL LPS); washes in PBS 0.1 M pH 8.0, glycine pH 2.8 elution, shotgun proteomics; control: antibody pre-incubated with the immunising peptides (IP PEP).

These are yes or no findings as the source states them, for the method shown. In cells and extracts the contact can be indirect. Here binding means that the protein was enriched with, or labelled near, the bait; the list need not be complete.

B1: Nmt1 (enzyme, UniProt Q8K1Q0 1-496)
chain: MADESETAVKLPAPSLPLMMEGNGNGHEHCSDCENEEDISHNRGGLSPANDTGAKKKKKKQKKKKEKGNDMDSTQDQPVKMNSLPAERIQEIQKAIELFSVGQGPAKTMEEASKRSYQFWDTQPVPKLGEVVNTHGPVEPDKDNIRQEPYTLPQGFTWDALDLGDRGVLKELYTLLNENYVEDDDNMFRFDYSPEFLLWALRPPGWLPQWHCGVRVVSSRKLVGFISAIPANIHIYDTEKKMVEINFLCVHKKLRSKRVAPVLIREITRRVHLEGIFQAVYTAGVVLPKPVGTCRYWHRSLNPRKLIEVKFSHLSRNMTMQRTMKLYRLPETPKTAGLRPMEKKDIPVVHQLLSRYLKQFNLTPVMNQEEVEHWFYPQENIIDTFVVENANGEVTDFLSFYTLPSTIMNHPTHKSLKAAYSFYNVHTQTPLLDLMSDALVLAKMKGFDVFNALDLMENKTFLEKLKFGIGDGNLQYYLYNWKCPSMGAEKVGLVLQ
Take B1: the binding result was “binds”.

B2: Ipo13 (protein, UniProt Q9JM04 1-963)
chain: MERREEQLGAAGAGAAPALDFTVENVEKALHQLYYDPNIENKNLAQKWLMQAQVSPQAWHFSWQLLQPDKVPEIQYFGASALHIKISRYWSDIPTDQYESLKAHSFTQITRFASGSKIVLTRLCVALASLALSMMPDAWPCAVADMVRLFQAEDSPVDSQGRCLALLELLTVLPEEFQTSRLPQYRKGLVRASLAVECGAVFPLLEQLLQQPSSPSCVRQKVLKCFSSWVQLEVPLQDCEALIQAAFAALQDSELFDSSVEAIVNAISQPDAQRYVNTLLKLIPLVLGLQEQLRQAVQNGDMETSHGICRIAVALGENHSRALLDQVEHWQSFLALVNMIMFCTGIPGHYPVNETTSSLTLTFWYTLQDDILSFEAEKQAVYQQVYRPVYFQLVDVLLHKAQFPSDEEYGFWSSDEKEQFRIYRVDISDTLMYVYEMLGAELLSNLYDKLGRLLTSSEEPYSWQHTEALLYGFQSIAETIDVNYSDVVPGLIGLIPRISISNVQLADTVMFTIGALSEWLADHPVMINSVLPLVLHALGNPELSVSSVSTLKKICRECKYELPPYAANIVAVSQDVLMKQIHKTSQCMWLMQALGFLLSALQVEENLKNLHSLISTYIQQLEKLAEEIPKPSNKLAIVHILGLLSNLFTTLDVSHHEDDHEGPELRKLPVPQGPNPVVVVLQQVFQLIQKVLSKWLSDAQVVEAVCAIFEKSVKTLLDDFAPMVPQLCEMLGRMYSTVPQASALDLTRQLVHIFAHEPAHFPPIEALFLLVTSVTLSLFQQGPRDHPDIVDSFMQLLAQALKRKPDLFQCERLDVKAVFQCAVLALKFPEAPTVKASCGFFTELLPRCGEIESVGKVVQEDGRMLLIAVLEAIGGQASRSLMDCFADILFALNKHCFSLLSMWIKEALQPPGFPSARLSPEQKDTFSQQILRERVNKRRVKEMVKEFTLLCRGLHGTDYTADY
With B2, the binding entry is reported as “binds”.

B3: EphA3 (receptor, UniProt O08680 21-984)
chain: ELSPQPSNEVNLLDSKTIQGELGWISYPSHGWEEISGVDEHYTPIRTYQVCNVMDHSQNNWLRTNWVPRNSAQKIYVELKFTLRDCNSIPLVLGTCKETFNLYYMESDDDHGVKFLEHQFTKIDTIAADESFTQMDLGDRILKLNTEIREVGPVNKKGFYLAFQDVGACVALVSVRVYFKKCPFTVKNLAMFPDTVPMDSQSLVEVRGSCVNNSKEEDPPRMYCSTEGEWLVPIGKCTCNAGYEERGFICQACRPGFYKALDGVAKCTKCPPHSSTQEDGSMNCRCENNYFRAEKDPPSMACTRPPSAPRNVISNINETSVILDWSWPLDTGGRKDITFNIICKKCGWNVRQCEPCSPNVRFLPRQLGLTNTTVTVTDLLAHTNYTFEIDAINGVSELSSPPRQFAAVSITTNQAAPSPVMTIKKDRTSRNSISLSWQEPEHPNGIILDYEVKYYEKQEQETSYTILRARGTNVTISSLKPDTTYVFQIRARTAAGYGTNSRKFEFENSPDSFSISGENSHVVMIAISAAVAIIVLTVVTYVLVGRFCGYHKSKHSSDEKRLHFGNGHLRLPGLRTYVDPHTYEDPTQAVHEFAKELDATNIAIDKVVGAGEFGEVCSGRLKLPSKKEISVAIKTLKVGYTEKQRRDFLGEASIMGQFDHPNIIRLEGVVTKSKPVMIVTEYMENGSLDSFLRKHDAQFTVIQLVGMLRGIASGMKYLSDMGYVHRDLAARNILINSNLVCKVSDFGLSRVLEDDPEAAYTTRGGKIPVRWTSPEATAYRKFTSASDVWSYGIVLWEVMSYGERPYWEMSNQDVIKAVDEGYRLPLPMDCPAALYQLMLDCWQKDRNNRPKFEQIVSILDKLIRNPGSLKIITSAAARPSNLLLDQSNVDIATFHTTGDWLNGMRTAHCKEIFTGVEYSSCDTIAKISTDDMKKVGVTVVGPQKKIISSIKALETQSKNGPVPV
As to B3, the binding result is “binds”.

B4: EphB6 (receptor, UniProt P0C0K7 32-1013)
chain: LEEVLLDTTGETSEIGWLTYPPGGWDEVSVLDDQRRLTRTFEACHVAGLPPGSGQDNWLQTHFVERRGAQRAHIRLHFSVRACSSLGVSGGTCRETFTLYYRQADEPDSPDSISAWHLKRWTKVDTIAADESFPASSSSSSWAVGPHRTDQRVGLQLNVKERSFGPLTQRGFYVAFQDTGACLALVAVKLFSYTCPSVLRAFASFPETQASGAGGASLVAAVGTCVAHAEPEEDGVGGQAGGSPPRLHCNGEGRWMVAVGGCRCQPGHQPARGDKLCQACPEGSYKALPGNVPCSPCPARSHSPDPAAPVCPCLQGFYRASSDPPEAPCTGPPSAPRELWFEVQGSALMLHWRLPQELGGRGDLLFNVVCKECGGHKEPSSGGMCRRCRDEVHFDPRQRGLTESRVLVGGLRAHVPYILEVQAVNGVSELSPDPPQAAAINVSTSHEVPSAVPVMHQVSRAANSITVSWPQPEQTNGNILDYQLRYYDQAEDESHSFTMTSETNTATVTRLSPGHIYGFQVRARTAAGHGPYGGKVYFQTLPQGELSSQLPEKLSLVIGSILGALAFLLLAAITVLAVIFQRKRRGTGYTEQLQQYSSPGLGVKYYIDPSTYDDPCQAIRELAREVDPTYIKIEEVIGAGSFGEVRRGRLQPRGRREQAVAIQALWAGGAESLKMTFLGRAALLGQFQHPNILRLEGVVTRSRPVMVLTELMELGPLDSFLRQREGQFSSLQLVAMQRGVAAAMQYLSSFAFVHRALSARSVLVNSHLVCKVARLGHSPQGSSSLLRWAAPEVITHGKYTTSSDVWSFGILMWEVMSYGERPYWDMSDQEVLNAIEQEFRLPPPPGCPTGLHLLMLDTWQKDRARRPHFDQLVAAFDKMIRKPDTLQAEGSSGDRPSQALLNPVALDFPCLDSPQAWLSAIGLECYQDNFSKFGLSTFSDVAQLSLEDLPGLGITLAGHQKKLLHNIQLLQQHLRQPGSVEV
With B4, the binding result was “binds”.

B5: Ndrg2 (protein, UniProt Q8VBU2 1-371)
chain: MAELQEVQITEEKPLLPGQTPEAAKEAELAARILLDQGQTHSVETPYGSVTFTVYGTPKPKRPAIFTYHDVGLNYKSCFQPLFQFGDMQEIIQNFVRVHVDAPGMEEGAPVFPLGYQYPSQDQLADMIPCILQYLNFSTIIGVGVGAGAYILSRYALNHPDTVEGLVLINIDPNAKGWMDWAAHKLTGLTSSIPEMILGHLFSQEELSGNSELIQKYRSLITHAPNLENIELYWNSYNNRRDLNFERGGEMTLKCPVMLVVGDQAPHEDAVVECNSKLDPTQTSFLKMADSGGQPQLTQPGKLTEAFKYFVQGMGYMASSCMTRLSRSRTASLTSAASIDGSRSRSRTLSQSSESGTLPSGPPGHTMEVSC
With B5, the binding result is listed as “binds”.

B6: Blvra (enzyme, UniProt P46844 3-295)
chain: AEPKRKFGVVVVGVGRAGSVRLRDLKDPRSAAFLNLIGFVSRRELGSLDEVRQISLEDALRSQEIDVAYICSESSSHEDYIRQFLQAGKHVLVEYPMTLSFAAAQELWELAAQKGRVLHEEHVELLMEEFEFLRREVLGKELLKGSLRFTASPLEEERFGFPAFSGISRLTWLVSLFGELSLISATLEERKEDQYMKMTVQLETQNKGLLSWIEEKGPGLKRNRYVNFQFTSGSLEEVPSVGVNKNIFLKDQDIFVQKLLDQVSAEDLAAEKKRIMHCLGLASDIQKLCHQKK
With B6, the binding result was “binds”.

(Values after publication PMC10432539.)
